This assay in a line: qHTS Assay for Lipid Storage Modulators in Drosophila S3 Cells.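 For cell number change: cells counted by Cell Tracker Red CMTPX staining in the red channel.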 The settings on record: BODIPY lipid droplet fluorescence, 18-24 h; for cell number change: measured here: cell count max response, cells fed with added oleic acid. In outline: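 Drosophila S3 cells loaded with oleic acid (400 uM, as added) and compounds at several concentrations; lipid droplets imaged by 488-nm laser-scanning cytometry, 500–530 nm intensity and object ratio to cell channel. Percent activity normalized to 20 uM Triacsin C.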

Where [1] appears, read: measured here: lipid fluorescence (Fed channel) AC50, cells fed with added oleic acid.
[2] abbreviates: measured here: cell number channel AC50, cells fed with added oleic acid.

This is one part of the list. The main result of the screen is listed elsewhere. These columns were measured beside it and carry no call. The list favours compounds with an active or inconclusive main result. The note in brackets gives the kind of curve behind each potency; many fits are weak.

For `CCc1noc(C)c1C(=O)N1CCC(CCC(=O)Nc2cccc(C)c2)CC1`, the cell number change was -0.283%. Moreover, the AC50 under setting [1] is 0.58 µM [falling, single point].
In the case of `CCn1c(P(C)(=O)O)nc2cc(NC(=O)c3ccccc3Cl)ccc21`, the cell number change worked out at 15.8%.
For the compound `O=C(O)CCC(=O)Nc1cccc(C(=O)Nc2ccc(Br)cc2)c1`, the cell number change is -19.2%.
As for `Cc1ccc(OCC(O)CNS(=O)(=O)c2ccccc2C(=O)O)cc1` (configuration not stated), the cell number change was -1.52%. For the same compound, under setting [1], the concentration at half-maximal activity (AC50) was 23.1 µM [rising, single point].
On to `Cc1ccc(C(=O)CSc2ccccn2)cc1`, for which the cell number change is -9.64%. The AC50 under setting [1] is 3.66 µM [rising, single point].
Take `O=C(NCc1ccccc1)C1C(=O)N(Cc2ccccc2)C(=O)C1C1(O)CCCC1` (configuration not stated): the cell number change is -1.4%.
`CCCc1nnc(NC(=O)CCC(=O)N2CCN(Cc3ccc(F)cc3)CC2)s1`: the cell number change was found to be 3.4%. For the same compound, under setting [1], the AC50 is 29.1 µM [falling, single point].
For the compound `CC(=O)Nc1ccc(NC(=O)c2ccc(CN3CCc4ccccc4C3)cc2)cc1`, the AC50 under setting [2] is 0.517 µM [falling, partial curve, poor fit].
Consider `COc1cccc(N2CCN(C(=O)C3CCN(S(=O)(=O)c4ccc5c(c4)CC(C)N5C(C)=O)CC3)CC2)c1` (configuration not stated), for which the cell number change is -21.1%.
In the case of `c1ccc2c(c1)[nH]c1nc3nncn3nc12`, the cell number change was found to be 7.26%. Moreover, the AC50 under setting [1] was 0.058 µM [falling, full curve, poor fit].
On to `Cn1c(=O)c2c(SCC(=O)NC3CCCC3)nc(CC(C)(C)C)nc2n(C)c1=O`, for which the cell number change was determined as 1.22%. In addition, the AC50 under setting [1] is 4.11 µM [rising, partial curve].
Regarding `CCCCn1c(SCc2c(C)noc2C)nc2cc(S(N)(=O)=O)ccc21`, the cell number change is 95%. Further, the AC50 under setting [2] was 29.1 µM [rising, single point]. For the same compound, the AC50 under setting [1] is 23.1 µM [rising, partial curve].
Turning to `Cc1ccc(S(=O)(=O)N(C)CC(=O)Nc2ccncc2)cc1`, the AC50 under setting [2] was 6.51 µM [falling, single point].
For the compound `OCCn1nc2c3ccccc3nc-2n(-c2ccccc2)c1=S`, the cell number change stood at 20.9%. Moreover, the AC50 under setting [1] was 8.2 µM [rising, partial curve].
With `Cc1ccc(NC2=C(NC(=O)c3ccccc3)C(=O)c3ccccc3C2=O)cc1Cl`, the cell number change was -72.1%. Besides, under setting [2], the AC50 is 14.6 µM [falling, partial curve]. In addition, the AC50 under setting [1] is 11.6 µM [falling, partial curve].
Consider `CC(=O)c1cccc(S(=O)(=O)N(C)C2CCN(C)CC2)c1`, for which the cell number change is -24.7%. In addition, the AC50 under setting [1] is 6.51 µM [falling, partial curve].
Take `CCCN1CCC(=O)N([C@H](CSc2ccccc2)CC(C)C)CC1`: the cell number change is 39.2%.
Consider `CC1(C)CC2CC(C)(CN2/C=N/c2sc3c(c2C#N)CC(C)(C)NC3(C)C)C1` (configuration not stated), for which the cell number change was -25.7%. The AC50 under setting [1] was 7.31 µM [falling, partial curve].
On to `O=C(Nc1ccccn1)c1cccs1`, for which the cell number change is -83.9%. In addition, the AC50 under setting [2] is 23.1 µM [falling, partial curve].
With `CN(C)c1ccc(N/C=C/C(=O)c2ccco2)cc1`, the AC50 under setting [1] is 0.58 µM [falling, single point].
As to `COc1cc(CNCc2ccccc2Cl)ccc1OCC(=O)NC1CCCCC1`, the cell number change was determined as 22.7%.
On to `CC1CC(C)CN(S(=O)(=O)c2ccc(F)c(C(=O)Nc3ccc(Cl)cc3F)c2)C1` (configuration not stated), for which the cell number change came out at 21.9%. Under setting [1], the AC50 was 6.51 µM [rising, single point].
As to `O=C(CN1C(=O)NC(Cc2ccccc2)C1=O)Nc1ccc(F)c(Cl)c1` (configuration not stated), the cell number change turned out to be 23.8%. Also, the AC50 under setting [1] is 0.00517 µM [rising, full curve, poor fit].
Consider `Cn1c(SCc2nc3ccccc3[nH]2)nnc1-c1ccccn1`, for which the cell number change is -12.4%.
In the case of `CCOc1ccc(NS(=O)(=O)c2ccc3[nH]cc(C(=O)NCCOC)c(=O)c3c2)cc1`, the AC50 under setting [1] is 0.651 µM [falling, single point].
Take `O=C(Nc1nccs1)c1cccc(N2C(=O)c3cccc4c([N+](=O)[O-])ccc(c34)C2=O)c1`: the cell number change was -24.9%. Besides, under setting [2], the AC50 is 3.66 µM [falling, full curve, poor fit]. Further, the AC50 under setting [1] is 29.1 µM [falling, single point].
On to `CC(C)c1ccc(NC2CCCN(C(=O)c3ccsc3)C2)cc1` (configuration not stated), for which the cell number change was 4.86%. Further, the AC50 under setting [1] was 29.1 µM [falling, single point].
On to `O=C(Nc1ncccc1Cl)c1ccccc1F`, for which the cell number change was 10.2%. In addition, under setting [1], the AC50 was 0.517 µM [falling, full curve, poor fit].
As to `CCOC(=O)C1CCN(C(=O)CCc2c(C)nc3cc(-c4ccccc4)nn3c2C)CC1`, the cell number change turned out to be 13.6%.
Consider `Cc1sc(NC(=O)c2cccc([N+](=O)[O-])c2)c(C(N)=O)c1-c1ccc(C(C)(C)C)cc1`, for which the cell number change came out at 1.76%. In addition, under setting [1], the AC50 is 29.1 µM [falling, partial curve, poor fit].
Consider `O=C(NCCc1ccco1)C(=O)NCC1OCCCN1S(=O)(=O)c1cc(F)ccc1F` (configuration not stated), for which the cell number change stood at 8.8%. Also, the AC50 under setting [1] is 29.1 µM [rising, single point].
Regarding `CC(=O)Nc1ccn(-c2ccccc2)n1`, the cell number change is -31.6%. Also, under setting [2], the AC50 is 11.6 µM [falling, partial curve, poor fit]. For the same compound, the AC50 under setting [1] is 29.1 µM [falling, single point].
`CSc1nc(Oc2ccc(Cl)cc2)c2sccc2n1`: the cell number change was determined as 50.5%. For the same compound, under setting [2], the AC50 was 23.1 µM [rising, single point].
Turning to `CCC(C)(C)n1nnnc1C(c1cc2ccc(C)cc2[nH]c1=O)N(Cc1cccnc1)Cc1ccco1` (configuration not stated), the AC50 under setting [1] is 0.58 µM [falling, single point].
As to `Cc1ccc(-n2c(C)nn(Cc3ccc([N+](=O)[O-])cc3)c2=O)cc1`, the cell number change is -0.865%. Besides, the AC50 under setting [2] was 0.631 µM [falling, single point]. Moreover, the AC50 under setting [1] is 0.316 µM [falling, partial curve, poor fit].
Consider `CCc1nnc(NC(=O)CSc2nc3ccc(OC)cc3[nH]2)s1`, for which the cell number change came out at 5.8%. In addition, the concentration at half-maximal activity (AC50) under setting [2] was 6.51 µM [falling, single point]. The AC50 under setting [1] is 4.61 µM [falling, single point].
In the case of `CCCCc1ccc(-c2ccc(Br)cc2O)nc1`, the cell number change was determined as 28.3%. Under setting [2], the AC50 was 0.731 µM [falling, full curve].
Regarding `Cc1cc2ncn(CC3CC3(Cl)Cl)c2cc1C` (configuration not stated), the cell number change was determined as 18.4%. In addition, the AC50 under setting [1] is 2.31 µM [rising, single point].
`CCCCCN(C(=O)CCC(=O)OCC(=O)N(C)C1CCCCC1)c1c(N)n(CCCC)c(=O)[nH]c1=O`: the cell number change amounted to 18.5%.
Take `CCOC(=O)C1=C(O)/C(=C/c2ccc(-c3ccccc3C(=O)O)o2)SC1=Nc1ccc(C)cc1`: the cell number change is -4.54%. Further, the AC50 under setting [1] is 18.4 µM [falling, single point].
Turning to `Cc1nnc(N2CCN(Cc3ccccc3)CC2)[nH]c1=O`, the cell number change is -4.26%. For the same compound, the AC50 under setting [1] was 5.8 µM [falling, full curve, poor fit].
As to `COc1ccc(CCn2c(=O)[nH]c3cc(C(=O)N4CCN(c5ccccc5)CC4)ccc3c2=O)cc1OC`, the cell number change was -33.2%. Further, the AC50 under setting [2] was 0.103 µM [falling, full curve, poor fit]. Moreover, the AC50 under setting [1] was 0.116 µM [falling, full curve, poor fit].
Regarding `COc1ccccc1NS(=O)(=O)c1cn(C)cn1`, the cell number change is -12.7%. Under setting [1], the AC50 is 0.231 µM [falling, full curve, poor fit].
Regarding `O=C(Nc1cccc(C(=O)O)c1)/C(=C\c1ccco1)NC(=O)c1ccccc1Cl`, the cell number change was -8.97%.
Turning to `Cc1sc(-c2ccncc2)nc1OC(=O)c1ccc(Cl)cc1`, the AC50 under setting [1] is 0.0013 µM [falling, full curve, poor fit].
Take `C/C(=N\NC(=O)c1ccc(C)cc1C)c1ccc2c(c1)OCO2`: the cell number change is -44.2%. Also, the AC50 under setting [2] was 7.31 µM [falling, full curve, poor fit].
In the case of `COc1cccc(C(=O)NCC2CCCN2S(=O)(=O)c2ccccc2)c1` (configuration not stated), the AC50 under setting [1] was 6.51 µM [rising, single point].
`CCn1nc(C)c(CNC(=O)c2ccc(OC3CCN(Cc4ccccn4)CC3)cc2)c1C`: the cell number change was -36.5%. The AC50 under setting [2] is 0.58 µM [falling, full curve, poor fit].
Take `C[n+]1c2n(c3ccccc31)N=C(c1ccc(-c3ccccc3)cc1)CS2`: the cell number change is -61.6%. Further, the AC50 under setting [2] was 29.1 µM [falling, single point]. In addition, the AC50 under setting [1] is 29.1 µM [falling, single point].
Take `CCOc1ccccc1NS(=O)(=O)c1ccc2[nH]c(=O)ccc2c1`: the cell number change was found to be 20.7%. For the same compound, the AC50 under setting [1] is 29.1 µM [falling, single point].
Regarding `COc1ccc(CCNS(=O)(=O)c2cccc([N+](=O)[O-])c2)cc1OC`, the cell number change is 21.6%. The AC50 under setting [1] is 6.51 µM [rising, single point].
Turning to `Cc1ccc(C(C)C)c(OCC(=O)NNC(=O)C2CSC3(C)CCC(=O)N23)c1` (configuration not stated), the cell number change was -25%. Under setting [2], the AC50 was 6.51 µM [falling, single point].
As for `c1ccc2c(c1)oc1c(NCCCN3CCOCC3)ncnc12`, the cell number change was -20.9%. Besides, the AC50 under setting [1] is 29.1 µM [rising, single point].
For the compound `Cc1cc(NC(=O)c2ccc3c(c2)C(=O)N(CCC(C)C)C3=O)no1`, the cell number change came out at 13.8%. Moreover, under setting [2], the AC50 was 0.731 µM [falling, single point].
Regarding `Cc1nc2ccccc2cc1OCc1ccc(F)cc1`, the cell number change is -78.2%.
`Cc1ccc(C(=O)OCC(=O)N2C(C)CCCC2C)cc1S(=O)(=O)N1CCOCC1` (configuration not stated): the cell number change was -31%. Further, under setting [2], the AC50 is 29.1 µM [falling, single point].
Consider `Cc1ccc2c(c1)N(C(=O)CCC(=O)NCc1cccnc1)CCO2`, for which the cell number change was determined as 11%.
Regarding `O=C(CN1CCN(S(=O)(=O)/C=C/c2ccccc2)CC1)Nc1ccc(N2CCOCC2)cc1`, the cell number change is 37.3%. Moreover, the AC50 under setting [2] was 20.6 µM [rising, single point].
Consider `Cn1ncc2c(N3CCOCC3)ncnc21`, for which the cell number change was -39.2%. Besides, the AC50 under setting [2] was 0.58 µM [falling, full curve]. Also, the AC50 under setting [1] was 7.31 µM [falling, partial curve, poor fit].
For the compound `COc1ccc(-c2csc(N3CCC(C(N)=O)(N4CCCCC4)CC3)n2)cc1`, the cell number change was -18.6%.
Regarding `COc1ccc(-c2cccc(NC(=O)c3ccco3)c2)nn1`, the AC50 under setting [1] is 2.91 µM [rising, partial curve].
As for `Cc1ccc(S(=O)(=O)N=Nc2c(O)[nH]c3ccccc23)cc1`, the cell number change is -16.5%. Also, the AC50 under setting [1] is 20.6 µM [falling, single point].
